{"source": "the supplement of paper PMC4604168 (melanoma cell lines)", "note": "The list shows a part of the results. Repeats are few or missing, and single values can be far off.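 The apoptosis fraction was the count of cleaved-PARP antibody-stained nuclei relative to all DNA-stained nuclei, imaged in 1,536-well plates. Screening doses were set so most cells survived, and baseline and induced cleaved-PARP levels vary greatly across cell lines.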", "data": [{"system": "SkMel28", "assay": "cleaved PARP positive nuclei fraction relative to DMSO control; higher = more apoptosis", "conditions": "library dose: low library concentration; 72 h", "units": {"cleaved PARP positive nuclei fraction": "%"}, "values": [{"smiles": "CNC(=O)c1cc(Oc2ccc(NC(=O)Nc3ccc(Cl)c(C(F)(F)F)c3)cc2)ccn1", "note": "[sorafenib] + Oc1nc(-c2ccc(C(F)(F)F)cc2)nc2c1CSCC2 [XAV939] (first compound 0.4 µM, partner dose 2 µM)", "cleaved PARP positive nuclei fraction": 78.3}, {"smiles": "O=C(O)[C@@H]1[O][Sb](=[O])([O][Sb]2(=[O])[O][C@H]([C@H](O)CO)[C@H](O)[C@H](C(=O)O)[O]2)[O][C@H]([C@H](O)CO)[C@@H]1O", "note": "(stereo not given in full) [stibogluconate] + C=CCn1c(=O)c2cnc(Nc3ccc(N4CCN(C)CC4)cc3)nc2n1-c1cccc(C(C)(C)O)n1 [MK1775] (first compound 2 µM, partner dose 0.02 µM)", "cleaved PARP positive nuclei fraction": 144}, {"smiles": "CC(C)C[C@H](NC(=O)[C@H](Cc1ccccc1)NC(=O)c1cnccn1)B(O)O", "note": "[Bortezomib] + O=c1cc(-c2cccc3c2Sc2ccccc2S3)oc(N2CCOCC2)c1 [KU55933] (first compound 0.001 µM, partner dose 1 µM)", "cleaved PARP positive nuclei fraction": 260}, {"smiles": "Cn1c(=O)n(-c2ccc(C(C)(C)C#N)cc2)c2c3cc(-c4cnc5ccccc5c4)ccc3ncc21", "note": "+ OCCn1cc(-c2cnc3nnn(Cc4ccc5ncccc5c4)c3n2)cn1 [PF04217903] (first compound 0.004 µM, partner dose 1 µM)", "cleaved PARP positive nuclei fraction": 139}, {"smiles": "Cn1c(=O)n(-c2ccc(C(C)(C)C#N)cc2)c2c3cc(-c4cnc5ccccc5c4)ccc3ncc21", "note": "+ c1cc(-c2cnn3cc(-c4ccc(OCCN5CCCCC5)cc4)cnc23)ccn1 [Dorsomorphin] (first compound 0.004 µM, partner dose 0.4 µM)", "cleaved PARP positive nuclei fraction": 368}, {"smiles": "O=C(O)c1ccc2c(c1)nc(Nc1cccc(Cl)c1)c1ccncc12", "note": "+ COc1ccc(-c2ccc3c(N4CCOCC4)nc(N4C[C@@H](C)O[C@@H](C)C4)nc3n2)cc1CO [KU0063794] (first compound 0.4 µM, partner dose 0.02 µM)", "cleaved PARP positive nuclei fraction": 61.3}]}, {"system": "SkMel2", "assay": "cleaved PARP positive nuclei fraction relative to DMSO control; melanoma cells; higher = more apoptosis", "conditions": "library dose: low library concentration; 72 h", "units": {"cleaved PARP positive nuclei fraction": "%"}, "values": [{"smiles": "O=C(O)[C@@H]1[O][Sb](=[O])([O][Sb]2(=[O])[O][C@H]([C@H](O)CO)[C@H](O)[C@H](C(=O)O)[O]2)[O][C@H]([C@H](O)CO)[C@@H]1O", "note": "(stereo not given in full) [stibogluconate] + OCCn1cc(-c2cnc3nnn(Cc4ccc5ncccc5c4)c3n2)cn1 [PF04217903] (first compound 2 µM, partner dose 1 µM)", "cleaved PARP positive nuclei fraction": 81.9}, {"smiles": "C[C@@H](Oc1cc(-c2cnn(C3CCNCC3)c2)cnc1N)c1c(Cl)ccc(F)c1Cl", "note": "[Crizotinib] + Oc1cc(-c2nc(-c3ccccc3)[nH]c2-c2ccncc2)ccc1Cl [L779450] (first compound 0.2 µM, partner dose 0.2 µM)", "cleaved PARP positive nuclei fraction": 54.3}, {"smiles": "C[C@@H](Oc1cc(-c2cnn(C3CCNCC3)c2)cnc1N)c1c(Cl)ccc(F)c1Cl", "note": "[Crizotinib] + CCCCCCCCCCCC1=C(O)C(=O)C=C(O)C1=O [Embelin] (first compound 0.2 µM, partner dose 1.2 µM)", "cleaved PARP positive nuclei fraction": 90}, {"smiles": "Nc1ncn([C@H]2C[C@H](O)[C@@H](CO)O2)c(=O)n1", "note": "[decitabine] + O=C(Nc1ccccc1)c1cc([N+](=O)[O-])ccc1Cl [GW9662] (first compound 0.1 µM, partner dose 2 µM)", "cleaved PARP positive nuclei fraction": 76.5}, {"smiles": "C[C@@H](Oc1cc(-c2cnn(C3CCNCC3)c2)cnc1N)c1c(Cl)ccc(F)c1Cl", "note": "[Crizotinib] + O=c1cc(-c2cccc3c2Sc2ccccc2S3)oc(N2CCOCC2)c1 [KU55933] (first compound 0.2 µM, partner dose 1 µM)", "cleaved PARP positive nuclei fraction": 152}, {"smiles": "CS(=O)(=O)CCNCc1ccc(-c2ccc3ncnc(Nc4ccc(OCc5cccc(F)c5)c(Cl)c4)c3c2)o1", "note": "[lapatinib] + OCCn1cc(-c2cnc3nnn(Cc4ccc5ncccc5c4)c3n2)cn1 [PF04217903] (first compound 0.8 µM, partner dose 1 µM)", "cleaved PARP positive nuclei fraction": 64.8}, {"smiles": "Cc1cc(Nc2cc(N3CCN(C)CC3)nc(/C=C/c3ccccc3)n2)n[nH]1", "note": "+ N#Cc1c(O)c2c(-c3ccc(-c4ccccc4O)cc3)csc2[nH]c1=O [A769662] (first compound 0.04 µM, partner dose 2 µM)", "cleaved PARP positive nuclei fraction": 125}, {"smiles": "CCCS(=O)(=O)Nc1ccc(F)c(C(=O)c2c[nH]c3ncc(Cl)cc23)c1F", "note": "+ COc1cc2ncnc(Nc3ccc(Oc4ccccc4)cc3)c2cc1OC [SrcI1] (first compound 0.08 µM, partner dose 2 µM)", "cleaved PARP positive nuclei fraction": 89}, {"smiles": "Nc1nc(F)nc2c1ncn2[C@@H]1O[C@H](CO)[C@@H](O)[C@@H]1O", "note": "[fludarabine] + CO[C@@H]1[C@H](N(C)C(=O)c2ccccc2)C[C@H]2O[C@]1(C)n1c3ccccc3c3c4c(c5c6ccccc6n2c5c31)C(=O)NC4 [Midostaurin] (first compound 0.2 µM, partner dose 0.08 µM)", "cleaved PARP positive nuclei fraction": 598}, {"smiles": "Nc1ncn([C@H]2C[C@H](O)[C@@H](CO)O2)c(=O)n1", "note": "[decitabine] + O=C(O)c1ccc(-c2c[nH]c3ncc(-c4ccccc4)cc23)cc1C1CCCC1 [GSK650394] (first compound 0.1 µM, partner dose 0.16 µM)", "cleaved PARP positive nuclei fraction": 83.9}, {"smiles": "CN1CCN(c2ccc3nc(-c4c(N)c5c(F)cccc5[nH]c4=O)[nH]c3c2)CC1", "note": "[Dovitinib] + Oc1cc(-c2nc(-c3ccccc3)[nH]c2-c2ccncc2)ccc1Cl [L779450] (first compound 0.1 µM, partner dose 0.2 µM)", "cleaved PARP positive nuclei fraction": 125}, {"smiles": "CS(=O)(=O)CCNCc1ccc(-c2ccc3ncnc(Nc4ccc(OCc5cccc(F)c5)c(Cl)c4)c3c2)o1", "note": "[lapatinib] + O=S(=O)(c1ccccc1)N(CC(F)(F)F)c1ccc(C(O)(C(F)(F)F)C(F)(F)F)cc1 [T0901317] (first compound 0.8 µM, partner dose 1.4 µM)", "cleaved PARP positive nuclei fraction": 106}, {"smiles": "CNC(=O)c1cc(Oc2ccc(NC(=O)Nc3ccc(Cl)c(C(F)(F)F)c3)cc2)ccn1", "note": "[sorafenib] + O=C(O)c1ccc(-c2c[nH]c3ncc(-c4ccccc4)cc23)cc1C1CCCC1 [GSK650394] (first compound 0.4 µM, partner dose 0.16 µM)", "cleaved PARP positive nuclei fraction": 87.5}, {"smiles": "CC(C)C[C@H](NC(=O)[C@H](Cc1ccccc1)NC(=O)c1cnccn1)B(O)O", "note": "[Bortezomib] + NC(=O)Nc1cc(-c2cccc(F)c2)sc1C(=O)N[C@H]1CCCNC1 [AZD7762] (first compound 0.001 µM, partner dose 0.02 µM)", "cleaved PARP positive nuclei fraction": 105}, {"smiles": "Nc1nc(F)nc2c1ncn2[C@@H]1O[C@H](CO)[C@@H](O)[C@@H]1O", "note": "[fludarabine] + NCC(=O)Nc1ccc(-n2nc(C(F)(F)F)cc2-c2ccc3c(ccc4ccccc43)c2)cc1 [OSU03012] (first compound 0.2 µM, partner dose 1 µM)", "cleaved PARP positive nuclei fraction": 407}, {"smiles": "CC(C)C[C@H](NC(=O)[C@H](Cc1ccccc1)NC(=O)c1cnccn1)B(O)O", "note": "[Bortezomib] + COc1cc2c(Oc3ccc4[nH]c(C)cc4c3F)ncnc2cc1OCCCN1CCCC1 [cediranib] (first compound 0.001 µM, partner dose 0.4 µM)", "cleaved PARP positive nuclei fraction": 142}, {"smiles": "CC(C)C[C@H](NC(=O)[C@H](Cc1ccccc1)NC(=O)c1cnccn1)B(O)O", "note": "[Bortezomib] + C[C@@H]1CCN(C(=O)CC#N)C[C@@H]1N(C)c1ncnc2[nH]ccc12 [CP690550] (first compound 0.001 µM, partner dose 1 µM)", "cleaved PARP positive nuclei fraction": 223}, {"smiles": "Nc1ccn([C@@H]2O[C@H](CO)[C@@H](O)C2(F)F)c(=O)n1", "note": "[gemcitabine] + C=CCn1c(=O)c2cnc(Nc3ccc(N4CCN(C)CC4)cc3)nc2n1-c1cccc(C(C)(C)O)n1 [MK1775] (first compound 0.0004 µM, partner dose 0.02 µM)", "cleaved PARP positive nuclei fraction": 119}, {"smiles": "CNC(=O)c1cc(Oc2ccc(NC(=O)Nc3ccc(Cl)c(C(F)(F)F)c3)cc2)ccn1", "note": "[sorafenib] + COc1cc2c(Oc3ccc4[nH]c(C)cc4c3F)ncnc2cc1OCCCN1CCCC1 [cediranib] (first compound 0.4 µM, partner dose 0.4 µM)", "cleaved PARP positive nuclei fraction": 76.3}, {"smiles": "CNC(=O)c1cc(Oc2ccc(NC(=O)Nc3ccc(Cl)c(C(F)(F)F)c3)cc2)ccn1", "note": "[sorafenib] + Cc1ccc(NC(=O)c2cccc(N(C)C)c2)cc1NC(=O)c1ccc(O)cc1 [ZM336372] (first compound 0.4 µM, partner dose 2 µM)", "cleaved PARP positive nuclei fraction": 94.6}, {"smiles": "C[C@@H](Oc1cc(-c2cnn(C3CCNCC3)c2)cnc1N)c1c(Cl)ccc(F)c1Cl", "note": "[Crizotinib] + CCN(CC)CCCCNc1ncc2cc(-c3cc(OC)cc(OC)c3)c(NC(=O)NC(C)(C)C)nc2n1 [PD173074] (first compound 0.2 µM, partner dose 0.1 µM)", "cleaved PARP positive nuclei fraction": 153}, {"smiles": "Nc1ncn([C@H]2C[C@H](O)[C@@H](CO)O2)c(=O)n1", "note": "[decitabine] + O=c1cc(-c2cccc3c2Sc2ccccc2S3)oc(N2CCOCC2)c1 [KU55933] (first compound 0.1 µM, partner dose 1 µM)", "cleaved PARP positive nuclei fraction": 154}, {"smiles": "O=C(O)c1ccc2c(c1)nc(Nc1cccc(Cl)c1)c1ccncc12", "note": "+ O=C(O)c1ccc(-c2c[nH]c3ncc(-c4ccccc4)cc23)cc1C1CCCC1 [GSK650394] (first compound 0.4 µM, partner dose 0.16 µM)", "cleaved PARP positive nuclei fraction": 111}, {"smiles": "Cc1cc(Nc2cc(N3CCN(C)CC3)nc(/C=C/c3ccccc3)n2)n[nH]1", "note": "+ C=CCn1c(=O)c2cnc(Nc3ccc(N4CCN(C)CC4)cc3)nc2n1-c1cccc(C(C)(C)O)n1 [MK1775] (first compound 0.04 µM, partner dose 0.02 µM)", "cleaved PARP positive nuclei fraction": 87.2}]}]}
